Laboratory results from patent US20250163052A1, “cGAS INHIBITORS AND USES THEREOF” (Cornell University, priority 2022, published 2025).

Assays:
[1] = Metabolic stability in mouse liver microsomes
[2] = Metabolic stability in human liver microsomes

Remaining (NCF = 60 min) ([1]; mouse liver microsomes, 60 min, no co-factor (no NADPH)): 103.5% | Remaining (T = 60 min) ([1]; mouse liver microsomes, 60 min with NADPH): 0.0% | CLint scaled ([1]; mouse, liver microsomes): 185 L/h/kg | microsomal CLint ([1]; mouse, liver microsomes): 777 µL/min/mg | Remaining (NCF = 60 min) ([2]; 60 min, no co-factor (no NADPH)): 117.3% | Remaining (T = 60 min) ([2]; 60 min with NADPH): 0.0%
Structure (SMILES): CCCNCC(O)COc1ccccc1C(=O)CCc1ccccc1 (stereo not drawn) [Propafenone, reference compound]
